# Experimental data taken from PubChem BioAssay AID1671190 (National Center for Advancing Translational Sciences (NCATS), 2021).
# Amino acid sequences for entries named in this document (tags omitted).
# UniProt P18054, whole entry, looked up: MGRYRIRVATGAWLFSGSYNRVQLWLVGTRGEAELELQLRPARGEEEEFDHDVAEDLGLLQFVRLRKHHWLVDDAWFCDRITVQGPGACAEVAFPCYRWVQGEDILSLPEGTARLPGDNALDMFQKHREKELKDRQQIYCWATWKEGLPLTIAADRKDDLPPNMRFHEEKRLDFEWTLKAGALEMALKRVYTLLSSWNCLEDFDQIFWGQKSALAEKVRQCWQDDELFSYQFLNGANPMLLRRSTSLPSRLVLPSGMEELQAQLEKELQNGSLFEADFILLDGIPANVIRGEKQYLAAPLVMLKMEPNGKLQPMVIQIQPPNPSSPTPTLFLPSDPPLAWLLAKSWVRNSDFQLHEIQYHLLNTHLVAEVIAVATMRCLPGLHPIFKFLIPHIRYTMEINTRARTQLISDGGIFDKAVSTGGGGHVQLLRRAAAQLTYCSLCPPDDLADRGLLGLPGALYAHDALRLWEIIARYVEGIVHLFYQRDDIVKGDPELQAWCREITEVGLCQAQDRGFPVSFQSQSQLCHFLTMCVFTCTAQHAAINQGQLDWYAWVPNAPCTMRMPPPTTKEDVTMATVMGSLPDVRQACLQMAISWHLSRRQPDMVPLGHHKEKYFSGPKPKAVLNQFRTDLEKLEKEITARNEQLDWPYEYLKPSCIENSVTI
# Screen size: about 580,000 compounds; about 6,100 (1.1%) were called active. Inconclusive means that the source gave no clear call. Such entries were picked first, then a sample of the others. Calls follow the shape of the dose curve; as a rule, active = well fitted inhibition curve with a large enough effect; inconclusive = small, poorly fitted or top-dose-only effect, or another doubt; inactive = no such curve, though single readings can be large or run the other way. A potency beside an inconclusive call is a rough fit, not a confirmed value.
# Molecular target: Polyunsaturated fatty acid lipoxygenase ALOX12 (Homo sapiens) (UniProt P18054)
# Assay: Primary qHTS assay for inhibitors of human arachidonate 12S-lipoxygenase (ALOX12): Round 2
# Conditions: purified 12hLO, xylenol orange hydroperoxide absorbance; activity change, negative = inhibition: at 108 µM (top of the series) unless noted
# Procedure, shortened: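 Hydroperoxide product was detected by ferrous iron/xylenol orange as the 573 to 405 nm absorbance ratio. Arachidonic acid at 40 uM (final) was turned over for 30 min at room temperature by 150 nM human 12hLO, pH 7.0 Hepes buffer, after 15 min compound preincubation.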
# % is scaled to controls: 0 for no effect and ±100 for the full control effect; potency is read from the fitted curve at half-maximal effect.
Compound,Potency,"activity change, negative = inhibition"
CCCCSc1[nH]c(=O)c(C(=O)OCC)cc1C#N,"inconclusive: 20 µM [inhibitor, partial curve, poor fit]",–
CCC(C)c1ccccc1NC(=O)c1cccc(-n2cnnn2)c1 (configuration not stated),"inconclusive: 56.2 µM [inhibitor, partial curve, poor fit]",–
CC(=C\c1ccccc1)/C=C1/SC(=S)N(CCC(=O)O)C1=O,–,inactive: -12.2%
O=c1oc(-c2ccccc2NS(=O)(=O)c2ccccc2)nc2ccccc12,"inconclusive: 2.24 µM [inhibitor, full curve, poor fit]",–
COc1cccc(-c2cnc3c(NC=O)cc(-c4ccc(N5CCN(C)CC5)cc4)cn23)c1,–,inactive: -14.3%
COc1ccc2c3n([n+]([O-])c2c1)C(C)CN=C3c1ccc(Cl)cc1 (configuration not stated),–,inconclusive: -44.9% [inhibitor]
OCC1CCN(Cc2cc3cc4c(cc3nc2-c2ccc(Cl)cc2)OCO4)CC1,–,inactive: 20.8%
CC1(C)CC(=O)C2=C(C1)N1C(=C(C#N)C2c2ccc(Cl)cc2)N=C(N)c2ccccc21 (configuration not stated),"inconclusive: 39.8 µM [inhibitor, single point]",–
CCOC(=O)c1c(-c2ccc(C)cc2)csc1NC(=O)CCN1CCOCC1,"inconclusive: 8.91 µM [inhibitor, full curve, poor fit]",–
CCOC(=O)c1sc(CC(=O)Nc2ccccc2C)nc1C,active: 8.91 µM,–
CCCN(C(=O)c1ccco1)c1nnc(-c2ccncc2)s1,"inconclusive: 44.7 µM [inhibitor, partial curve, poor fit]",–
Cc1ccc(OCc2n[nH]c(=S)n2-c2ccc(Cl)cc2)cc1,"inconclusive: 31.6 µM [inhibitor, partial curve, poor fit]",–
O=C1NCC2(CCN(C(=O)c3ccc(Cl)cc3)CC2)Oc2ccccc21,"inconclusive: 1.41 µM [inhibitor, full curve, poor fit]",–
CO[C@@]12[C@H](COC(N)=O)C3=C(C(=O)C(C)=C(N)C3=O)N1C[C@@H]1N[C@@H]12,"inconclusive: 19.3 µM [inhibitor, partial curve, poor fit]",–
COc1ccc(-c2nc3cc(F)ccc3nc2C(=O)Nc2c(C)cccc2C)cc1,"inconclusive: 100 µM [inhibitor, partial curve, poor fit]",–
Cc1ccc(/C=C/C(=O)Nc2ccc3nc(N4CCC(C)CC4)cc(C)c3c2)cc1,"inconclusive: 56.2 µM [inhibitor, partial curve, poor fit]",–
CC(C)Cn1c(SC(C)C(N)=O)nnc1-c1ccco1 (configuration not stated),–,inactive: -0.681%
CC(=O)NC1(C)CCN(Cc2ccc(-c3cccc4ncccc34)cc2)C1 (configuration not stated),"inconclusive: 31.6 µM [inhibitor, full curve]",–
Cc1ccc(C(C(=O)NC2CCCCC2)N(C(=O)c2csnn2)C2CCCC2)o1 (configuration not stated),"inconclusive: 28.2 µM [inhibitor, single point]",–
CC(C)CCNC(=O)c1ccc(-c2ccccc2)s1,"inconclusive: 39.8 µM [inhibitor, partial curve, poor fit]",–
Cn1ncc(N2CCC(NC(=O)Cc3ccsc3)CC2)cc1=O,"inconclusive: 14.1 µM [inhibitor, full curve]",–

# Single values from above.
# Entry for `Cc1ccc(C(C(=O)NC2CCCCC2)N(C(=O)c2csnn2)C2CCCC2)o1` (configuration not stated) under Potency: inconclusive: 28.2 µM [inhibitor, single point]
# Entry for `O=c1oc(-c2ccccc2NS(=O)(=O)c2ccccc2)nc2ccccc12` under Potency: inconclusive: 2.24 µM [inhibitor, full curve, poor fit]
# Entry for `Cc1ccc(OCc2n[nH]c(=S)n2-c2ccc(Cl)cc2)cc1` under Potency: inconclusive: 31.6 µM [inhibitor, partial curve, poor fit]
# Entry for `CC(=C\c1ccccc1)/C=C1/SC(=S)N(CCC(=O)O)C1=O` under activity change, negative = inhibition: inactive: -12.2%

# (further entries)

Compound,Potency,"activity change, negative = inhibition"
CC(=O)C(Cl)C(=O)Nc1ccccc1 (configuration not stated),–,inactive: -16.4%
CCN(c1ccccc1)c1cc(C)nc2nc(C)nn12,–,inactive: 415%
COc1cc(-c2cc(OC)c3c(C)oc(C)c3c(=O)c2)ccc1OC(=O)c1cccc(C)c1,"inconclusive: 5.01 µM [inhibitor, full curve, poor fit]",–
O=C(C1CCCC1)N1CC2(CCCN(CC3CCCCC3)C2)Cc2ccccc21 (configuration not stated),"inconclusive: 63.1 µM [inhibitor, partial curve, poor fit]",–
CCOc1cccc(C2C(C(=O)c3ccc(C)o3)=C(O)C(=O)N2c2nccs2)c1 (configuration not stated),active: 0.631 µM,–
Cc1ccc(NC(=O)CCSc2nnc3ccccn23)cc1,–,inactive: 0%
NCCS(N)(=O)=O,"inconclusive: 35.5 µM [inhibitor, partial curve]",–
Cc1ccc(C(=O)c2oc3cc(NC(=O)c4ccncc4)ccc3c2C)cc1,"inconclusive: 7.08 µM [inhibitor, full curve, poor fit]",–
O=C(CSc1ncc(-c2ccccc2)nn1)NCc1ccco1,–,inactive: -15.6%
CCNc1nc(NC(C)C)nc(N(C#N)C(C)C(=O)N(CC)CC)n1 (configuration not stated),–,inactive: 144%
Cc1ccc(-n2ncc3c(NCc4cccnc4)ncnc32)c(C)c1,–,inactive: -0.581%
CCC(C)Sc1nnc(NC(=O)C2CCN(C(=O)c3ccco3)CC2)s1 (configuration not stated),"inconclusive: 100 µM [inhibitor, partial curve, poor fit]",–
C=CCN(CC=C)Cc1cc(=O)oc2cc(C)cc(C)c12,"inconclusive: 79.4 µM [inhibitor, single point]",–
Cc1ccc(C(=O)Nc2c(C(=O)Nc3ccc(C)c(C)c3)sc3nc(C)cc(C)c23)cc1,"inconclusive: 100 µM [inhibitor, single point]",–
COc1cc(C)c(NC(=O)c2ccc3c(c2)NC(=O)CS3)cc1OC,active: 20 µM,–
COc1cccc(S(=O)(=O)N2CCc3nnc([C@@H]4C[C@@H](O)CN4C)n3CC2)c1,"inconclusive: 8.91 µM [inhibitor, full curve, poor fit]",–
Cc1ccc(C2C=C(c3ccccc3)Nc3nc(NS(C)(=O)=O)nn32)cc1 (configuration not stated),"inconclusive: 112 µM [inhibitor, single point]",–
Cc1cc(C)n(C2CCCCC2OC(=O)CCc2ccccc2)n1 (configuration not stated),"inconclusive: 100 µM [inhibitor, partial curve, poor fit]",–
COc1ccc(-c2nc(C3CC3)nc3c2CCN(C(=O)c2ccccc2OC)CC3)cc1,"inconclusive: 100 µM [inhibitor, partial curve, poor fit]",–
COC(=O)C1(O)CC(c2ccccc2)C(C(=O)c2ccccc2)N1c1ccc(Br)cc1 (configuration not stated),"inconclusive: 20 µM [inhibitor, full curve]",–
O=C(O)C(c1c[nH]c2cc(Cl)ccc12)N1CCN(Cc2cccc3ccccc23)CC1 (configuration not stated),"inconclusive: 2.51 µM [inhibitor, full curve, poor fit]",–
